In the supplement of paper PMC12067093, “Discovery and optimisation of a covalent ligand for TRIM25 and its application to targeted protein ubiquitination” (Chemical Science, 2025):
The list shows a part of the results.

Compound: CC1Cc2ccccc2N1C(=O)C1CCCN(C1)C(=O)CCl (mixture of isomers) [TRIM25 ligand 11 (diastereomer mixture)]
Assay: probe-labelled cysteine peptide fold change vs DMSO (competition) (log2 fold change); higher = less target engagement (more negative = stronger competition)
Conditions: THP-1, incubation time: 4 h
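Further: competitive chemoproteomic profiling in live THP-1 cells with an iodoacetamide desthiobiotin (IA-DTB) probe, comparing probe-labelled peptide intensities in compound-treated cells against DMSO-treated controls.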

| Target | probe-labelled cysteine peptide fold change (10 µM) | probe-labelled cysteine peptide fold change (50 µM) |
| --- | --- | --- |
| FSCN1_Q16658_61_KQIWTLEQPPDEAGSAAVCLR (UniProt Q16658) | -0.189 | -0.212 |
| FLNB_O75369_1617_CLATGPGIASTVK (UniProt O75369) | -0.000454 | 0.185 |
| FXR1_P51114_211_HLECTK (UniProt P51114) | -0.0391 | -0.0989 |
| GABPA_Q06546_388_YYYDGDMICK (UniProt Q06546) | 0.0462 | 0.0814 |
| FTO_Q9C0B1_249_SAVAVYSYSCEGPEEESEDDSHLEGRDPDIWHVGFK (UniProt Q9C0B1) | -0.144 | -0.21 |
| FUBP3_Q96I24_310_CQHAAHIISELILTAQER (UniProt Q96I24) | -0.0735 | -0.0571 |
| FHOD1_Q9Y613_977_IMQFCHTLR (UniProt Q9Y613) | 0.00186 | 0.415 |
| FHL3_Q13643_10_CNESLYGR (UniProt Q13643) | -0.143 | 0.144 |
| FYCO1_Q9BQS8_848_AHVQELLQCSER (UniProt Q9BQS8) | -0.0477 | -0.165 |
| FKRP_Q9H9S5_191_CDALDGDAVVLLR (UniProt Q9H9S5) | 0.0347 | -0.00253 |
| FOS_P01100_204_EKLEFILAAHRPACK (UniProt P01100) | -0.296 | -0.128 |
| FGR_P09769_415_LIKDDEYNPCQGSK (UniProt P09769) | 0.0828 | 0.00977 |
| FRY_Q5TBA9_120_GEDPQFDQVISSMSSLSEYCLPSILR (UniProt Q5TBA9) | 0.113 | -0.528 |
| FSCN1_Q16658_334_NASCYFDIEWR (UniProt Q16658) | 0.0164 | 0.151 |
| FOXP1_Q9H334_29_SNGSAIQNGSGGSNHLLECGGLR (UniProt Q9H334) | 0.115 | -0.145 |
| FKBP1A_P62942_23_RGQTCVVHYTGMLEDGK (UniProt P62942) | -0.0307 | -0.173 |
| FNBP1L_Q5T0N5_543_GPPQQHGHHNEFDDEFEDDDPLPAIGHCK (UniProt Q5T0N5) | 0.0268 | -0.406 |
| FLNB_O75369_2537_SSFLVDCSK (UniProt O75369) | -0.0792 | -0.0474 |
| FRYL_O94915_1042_CHFSALVANIIQNVPVHQR (UniProt O94915) | 0.0176 | -0.0237 |
| FN1_P02751_141_CHEGGQSYK (UniProt P02751) | 0.158 | -0.144 |
| FN1_P02751_470_FGFCPMAAHEEICTTNEGVMYR (UniProt P02751) | 0.0472 | 0.0343 |
| FLOT2_Q14254_56_CEDVETAEGVALTVTGVAQVK (UniProt Q14254) | -0.0392 | 0.0252 |

| Target | probe-labelled cysteine peptide fold change (10 µM) | probe-labelled cysteine peptide fold change (50 µM) |
| --- | --- | --- |
| FRG1_Q14331_159_CNEAGDIEAK (UniProt Q14331) | -0.0781 | -0.137 |
| FYCO1_Q9BQS8_882_CSSEEAQLEHAELQEQLHR (UniProt Q9BQS8) | 0.112 | 0.048 |
| FOCAD_Q5VW36_758_IRPEIPIPEELDDDEDVEDVDLSVPGSCYLK (UniProt Q5VW36) | -0.0823 | -0.0223 |
| FGFR1OP_O95684-3_133_TITQLECLLSIGALHFK (UniProt O95684) | -0.0773 | -0.345 |
| FHL2_Q14192_254_CSLSLVGR (UniProt Q14192) | -0.0206 | 0.0367 |
| FHOD1_Q9Y613_373_SLEGGGCPAR (UniProt Q9Y613) | 0.118 | 0.0577 |
| FKBPL_Q9UIM3_168_CLESMCQGEEAELQLPGHSGPPVR (UniProt Q9UIM3) | -0.0587 | 0.107 |
| FHL1_Q13642_150_GEDFYCVTCHETK (UniProt Q13642) | 0.0477 | 0.0277 |
| FTO_Q9C0B1_472_TLPADQKPECRPYWEK (UniProt Q9C0B1) | -0.072 | -0.27 |
| FGD3_Q5JSP0_184_LHLLDQVFCTR (UniProt Q5JSP0) | -0.187 | 0.0888 |
| FLT3_P36888_35_CVLINHK (UniProt P36888) | -0.123 | -0.193 |
| FRYL_O94915_2160_DCSNWINVVCR (UniProt O94915) | -0.093 | 0.113 |
| FH_P07954_434_LLGDASVSFTENCVVGIQANTER (UniProt P07954) | -0.504 | -0.961 |
| FMNL1_O95466_69_KWELICDQER (UniProt O95466) | -0.128 | 0.000214 |
| FLAD1_Q8NFF5_561_CLSPGGHPTYRPAYLLENEEEER (UniProt Q8NFF5) | 0.144 | 0.271 |
| FUBP1_Q96AE4_132_IQQESGCK (UniProt Q96AE4) | 0.0917 | 0.446 |
| FTH1_P02794_131_NDPHLCDFIETHYLNEQVK (UniProt P02794) | 0.00582 | 0.283 |
| FSCN1_Q16658_260_VGKDELFALEQSCAQVVLQAANER (UniProt Q16658) | 0.0245 | -0.148 |
| FGGY_Q96C11_280_GHGLICEGQPVTSR (UniProt Q96C11) | 0.12 | -0.0295 |
| FMNL1_O95466_787_EQRPMEELSEEDRFMLCFSR (UniProt O95466) | -0.0985 | -0.177 |
| FPGS_Q05932_111+116_GSTCAFTECILR (UniProt Q05932) | -0.126 | 0.109 |
| FHL1_Q13642_65_FWHDTCFR (UniProt Q13642) | 0.051 | -0.0125 |

| Target | probe-labelled cysteine peptide fold change (10 µM) | probe-labelled cysteine peptide fold change (50 µM) |
| --- | --- | --- |
| FN1_P02751_386_QDGHLWCSTTSNYEQDQK (UniProt P02751) | 0.296 | -0.183 |
| FNDC3B_Q53EP0_558_SCPSEVLVCTTSPDRPGPPTRPLVK (UniProt Q53EP0) | -0.059 | -0.0636 |
| FUBP3_Q96I24_366_CGLVIGK (UniProt Q96I24) | -0.0888 | 0.0606 |
| FHL2_Q14192_92_EDQLLCTDCYSNEYSSK (UniProt Q14192) | -0.0328 | -0.135 |
| FLII_Q13045_982_QPEEDFQCIVYFWQGR (UniProt Q13045) | 0.538 | 0.154 |
| GABPB1_Q06547-3_355_SLLPGVLCR (UniProt Q06547) | -0.0341 | -0.00581 |
| FLII_Q13045_560_ACSAIHAVNLR (UniProt Q13045) | 0.0807 | 0.0422 |
| FNBP1_Q96RU3_511_RQSGLYDSQNPPTVNNCAQDR (UniProt Q96RU3) | 0.269 | -0.0608 |
| FLNB_O75369_455_SPFVVQVGEACNPNACR (UniProt O75369) | -0.0325 | 0.0382 |
| FUS_P35637_428_CPNPTCENMNFSWR (UniProt P35637) | -0.139 | -0.114 |
| FKBP15_Q5T1M5_828_DEHLQQYQEVCAQR (UniProt Q5T1M5) | -0.0655 | 0.0221 |
| FSCN1_Q16658_121_LSCFAQTVSPAEK (UniProt Q16658) | 0.267 | 0.258 |
| FLII_Q13045_232_TQSNLPTSLEGLSNLADVDLSCNDLTR (UniProt Q13045) | -0.118 | -0.171 |
| FYCO1_Q9BQS8_293_LTCLVAELQK (UniProt Q9BQS8) | -0.0779 | 0.119 |
| FZD2_Q14332_201_YATLEHPFHCPR (UniProt Q14332) | -0.0153 | -0.0497 |
| G6PD_P11413_158_NIHESCMSQIGWNR (UniProt P11413) | 0.171 | -0.271 |
| FRY_Q5TBA9_2404_LVHVLSLCGQEVGLSK (UniProt Q5TBA9) | -0.00377 | -0.1 |
| FHL2_Q14192_224_CAGCTNPISGLGGTK (UniProt Q14192) | -0.000107 | 0.0367 |
| FN1_P02751_374_TFYSCTTEGR (UniProt P02751) | 0.108 | -0.294 |
| FSCN1_Q16658_61_QIWTLEQPPDEAGSAAVCLR (UniProt Q16658) | -0.242 | 0.167 |
| FLNB_O75369_622_EPGEYAVHIMCDDEDIK (UniProt O75369) | 0.029 | -0.161 |
| FKBP9_O95302_47_FVPDECPR (UniProt O95302) | 0.0656 | 0.0999 |

| Target | probe-labelled cysteine peptide fold change (10 µM) | probe-labelled cysteine peptide fold change (50 µM) |
| --- | --- | --- |
| FXR2_P51116_151_EACSNENVHK (UniProt P51116) | 0.36 | 0.06 |
| FLAD1_Q8NFF5_236_LHYGTDPCTGQPFRFPLVSVR (UniProt Q8NFF5) | -0.0344 | -0.0155 |
| G6PD_P11413_232_DNIACVILTFK (UniProt P11413) | 0.17 | 0.466 |
| GABPA_Q06546_69_LQCSLDAHEICLQDIQLDPER (UniProt Q06546) | 0.125 | 0.116 |
| FNBP1_Q96RU3_609_NEDEEGYVPTSYVEVCLDK (UniProt Q96RU3) | -0.117 | -0.0917 |
| FNDC3A_Q9Y2H6_762_CDITTAPGPPDQCKPPQVTCR (UniProt Q9Y2H6) | -0.0387 | 0.0709 |
| FLAD1_Q8NFF5_147_SLGVQVCR (UniProt Q8NFF5) | -0.128 | 0.246 |
| FLOT1_O75955_85_EMLAAACQMFLGK (UniProt O75955) | -1.02e-05 | 0.235 |
| FHL1_Q13642_10_FDCHYCR (UniProt Q13642) | -0.0131 | 0.00791 |
| FRA10AC1_Q70Z53_240_DCEESSHKK (UniProt Q70Z53) | -0.0485 | -0.0194 |
| FLNB_O75369_2115_APSVATVGSICDLNLK (UniProt O75369) | -0.0796 | -0.0239 |
| FN3KRP_Q9HA64_11_ELGCSSVR (UniProt Q9HA64) | -0.0658 | -0.015 |
| FSCN1_Q16658_397_GEHGFIGCR (UniProt Q16658) | 0.015 | 0.047 |
| G6PD_P11413_446_LILDVFCGSQMHFVR (UniProt P11413) | -0.0531 | 0.0353 |
| FTO_Q9C0B1_171_ANEDAVPLCMSADFPR (UniProt Q9C0B1) | -0.0856 | -0.483 |
| FLYWCH2_Q96CP2_132_TEDSGLAAGPPEAAGENFAPCSVAPGK (UniProt Q96CP2) | -0.118 | -0.403 |
| FXR1_P51114_129+141_CTVDVPEDLREACANENAHK (UniProt P51114) | -0.154 | -0.0181 |
| GABPA_Q06546_61+69_LQCSLDAHEICLQDIQLDPER (UniProt Q06546) | 0.0282 | 0.0599 |
| FHL1_Q13642-1_273+276_FVFHQEQVYCPDCAK (UniProt Q13642) | 0.107 | 0.16 |
